Values of other authors, collected in patent US20250295673A1, “TREATMENT OF BREAST CANCER” (priority 2024, published 2025).
Some results were stated once for a whole list of compounds, not compound by compound.

Tested on: estrogen receptor-alpha and beta
Settings: greater in potency than estradiol

Compound | binding potency at estrogen receptor-alpha and beta relative to estradiol [times]
C[C@]12COC(=O)C[C@@H]1CC[C@@H]1[C@@H]2CC[C@@]2(C)[C@H]1CC[C@]2(C)O [oxandrolone] | 10 to 30
C[C@]12CC[C@H]3[C@@H](CCC4=CC(=O)CC[C@@]43C)[C@@H]1CC[C@@H]2O [Testosterone] | 10 to 30
